In the supplement of paper PMC9015667:
Where a name gives a salt, the structure may show the parent alone. The list shows a part of the results. Repeats are few or missing, and single values can be far off.

Experiments:
Experiment in all cases: reduction in cell viability relative to untreated/vehicle; higher = more growth inhibition
Conditions in all cases: 200 nM; 72 h
M229P = test system: M229P (parental melanoma line)
M229R = test system: M229R (matched melanoma line resistant to BRAF inhibitors)
M238P = test system: M238P (parental melanoma line)
M238R = test system: M238R (matched melanoma line resistant to BRAF inhibitors)
M249P = test system: M249P (parental melanoma line)
M249R = test system: M249R (matched melanoma line resistant to BRAF inhibitors)
UACC62P = test system: UACC62P (parental melanoma line)
UACC62R = test system: UACC62R (matched melanoma line resistant to BRAF inhibitors)

SMILES | reduction in cell viability (M229P) [%] | reduction in cell viability (M229R) [%] | reduction in cell viability (M238P) [%] | reduction in cell viability (M238R) [%] | reduction in cell viability (M249P) [%] | reduction in cell viability (M249R) [%] | reduction in cell viability (UACC62P) [%] | reduction in cell viability (UACC62R) [%]
O[C@@H](CNC[C@H](O)[C@H]1CCc2cc(F)ccc2O1)[C@@H]1CCc2cc(F)ccc2O1 (racemic) [rac Nebivolol hydrochloride] | < 0 | < 0 | < 0 | < 0 | < 0 | < 0 | < 0 | < 0
COc1cc2c(Oc3ccc4[nH]c(C)cc4c3F)ncnc2cc1OCCCN1CCCC1 [Cediranib] | < 0 | < 0 | < 0 | < 0 | < 0 | 7.13 | < 0 | < 0
O=C(/C=C/c1c(C(=O)O)[nH]c2cc(Cl)cc(Cl)c12)Nc1ccccc1 [Gavestinel sodium] | < 0 | < 0 | < 0 | < 0 | < 0 | < 0 | < 0 | < 0
CCOC(=O)[C@@H](C)Oc1cccc2c(=O)n(CC(=O)Nc3ccc4c(c3)OCCO4)ccc12 | < 0 | < 0 | < 0 | < 0 | < 0 | < 0 | < 0 | < 0
O=C(Nc1cc(C(F)(F)F)cc(C(F)(F)F)c1)c1cc(Cl)ccc1O | < 0 | 14.3 | 27.4 | < 0 | 14.6 | 1.42 | 26.8 | 36.1
Cc1nc(N)sc1-c1ccnc(Nc2ccc(N3CCOCC3)cc2)n1 | < 0 | < 0 | < 0 | < 0 | < 0 | < 0 | < 0 | 7.38
CN(C)C1CCN(C(=O)c2ccc(NC(=O)Nc3ccc(-c4nc(N5CCOCC5)nc(N5CCOCC5)n4)cc3)cc2)CC1 | 58.4 | 40.6 | 49 | 49.6 | 69 | 55.4 | 56.6 | 55.2
C[C@]1(CO)CN(c2cc(C(=O)Nc3ccc4c(c3)-c3c(c(C(N)=O)nn3-c3ccc(F)cc3)CC4)c(Cl)cn2)C[C@@]1(C)CO | < 0 | < 0 | < 0 | < 0 | < 0 | < 0 | < 0 | < 0
CNC(=O)c1ccc(N2C(=S)N(c3cnc(C#N)c(C(F)(F)F)c3)C(=O)C23CCC3)cc1F | < 0 | < 0 | < 0 | < 0 | < 0 | < 0 | < 0 | < 0
O=C(CCCCCCC(=O)Nc1ccc([C@H]2O[C@@H](CSc3nc(-c4ccccc4)c(-c4ccccc4)o3)C[C@@H](c3ccc(CO)cc3)O2)cc1)NO [Tubacin] | 3.25 | < 0 | < 0 | 12.4 | < 0 | 7.31 | < 0 | < 0
COc1nc(-c2ccc3c(c2)OCO3)n(-c2ccc(NC(=O)CSc3ccccc3)cc2)n1 [Secin H3] | < 0 | < 0 | 24.3 | < 0 | 18.8 | < 0 | < 0 | 7.78
CC(C)OC(=O)OCOP(=O)(CO[C@H](C)Cn1cnc2c(N)ncnc21)OCOC(=O)OC(C)C [Tenofovir disoproxil fumarate] | < 0 | < 0 | < 0 | < 0 | < 0 | < 0 | < 0 | < 0
Nc1nc(=O)[nH]cc1F [Flucytosine] | < 0 | < 0 | < 0 | < 0 | < 0 | < 0 | 2.53 | < 0
OC[C@H]1O[C@@H](Oc2ccc(O)cc2)[C@H](O)[C@@H](O)[C@@H]1O [Arbutin] | < 0 | < 0 | < 0 | < 0 | < 0 | 4.25 | < 0 | < 0
Cc1ccc(CN2CCNCC2)cc1NC(=O)CNc1ccc(F)c(F)c1 | < 0 | < 0 | < 0 | < 0 | < 0 | < 0 | < 0 | < 0
CCOc1cc2ncc(C#N)c(Nc3ccc(F)c(Cl)c3)c2cc1NC(=O)/C=C/CN(C)C [Pelitinib] | 20.8 | < 0 | 31.6 | 5.04 | 25.6 | 26.9 | 32.4 | 29.3
O=C1NCCc2[nH]c(-c3ccncc3)cc21 | < 0 | < 0 | < 0 | < 0 | < 0 | < 0 | < 0 | < 0
COCCCC/C(=N\OCCN)c1ccc(C(F)(F)F)cc1 [Fluvoxamine] | < 0 | < 0 | < 0 | < 0 | < 0 | < 0 | < 0 | < 0
O[C@@H](COc1cccc2ncccc12)CN1CCN(C2c3ccccc3[C@@H]3[C@H](c4ccccc42)C3(F)F)CC1 (stereo partly specified) | < 0 | < 0 | < 0 | < 0 | < 0 | < 0 | < 0 | < 0
O=C(CO)N1CCC(c2n[nH]c(-c3ccc(Cl)cc3)c2-c2ccncn2)CC1 | < 0 | < 0 | < 0 | < 0 | < 0 | < 0 | < 0 | < 0
CCc1ccc(C(=O)Nc2cc(CN3CCN(C)CC3)cc(C(F)(F)F)c2)cc1C#Cc1cnc2ccnn2c1 | < 0 | < 0 | < 0 | < 0 | < 0 | < 0 | < 0 | < 0

SMILES | reduction in cell viability (M229P) [%] | reduction in cell viability (M229R) [%] | reduction in cell viability (M238P) [%] | reduction in cell viability (M238R) [%] | reduction in cell viability (M249P) [%] | reduction in cell viability (M249R) [%] | reduction in cell viability (UACC62P) [%] | reduction in cell viability (UACC62R) [%]
Nc1ccn(C[C@@H](CO)OCP(=O)(O)O)c(=O)n1 [Cidofovir] | < 0 | < 0 | < 0 | < 0 | < 0 | < 0 | < 0 | < 0
Cc1[nH]c(/C=C2\C(=O)Nc3ccc(S(=O)(=O)Cc4c(Cl)cccc4Cl)cc32)c(C)c1C(=O)N1CCC[C@@H]1CN1CCCC1 | < 0 | < 0 | < 0 | < 0 | < 0 | < 0 | < 0 | < 0
Cc1cc(Nc2cc(NC(=O)c3c(Cl)cccc3Cl)ccn2)nc(N)n1 | 12.4 | 3.06 | 24.4 | 10.5 | < 0 | 21 | 24 | 61.5
Clc1cc(Cl)cc(CNc2ncncc2-c2ccc3c(c2)OCO3)c1 | < 0 | < 0 | < 0 | < 0 | < 0 | 2.48 | < 0 | < 0
Cc1cc(C(=O)Nc2cc(Nc3ccc4c(/C=C/c5ccccn5)n[nH]c4c3)ccc2F)n(C)n1 | < 0 | < 0 | < 0 | < 0 | < 0 | < 0 | < 0 | < 0
Cc1ccc(NC(=O)C2(c3ccc4c(c3)OC(F)(F)O4)CC2)nc1-c1cccc(C(=O)O)c1 [Lumacaftor] | < 0 | < 0 | < 0 | < 0 | < 0 | < 0 | < 0 | < 0
CO[C@H]1/C=C/O[C@@]2(C)Oc3c(C)c(O)c4c(O)c(c(/C=N/N5CCN(C)CC5)c(O)c4c3C2=O)NC(=O)/C(C)=C\C=C\[C@H](C)[C@H](O)[C@@H](C)[C@@H](O)[C@@H](C)[C@H](OC(C)=O)[C@@H]1C [Rifampicin] | < 0 | 0.81 | 16.2 | 10.8 | 13.9 | < 0 | 7.85 | 22.4
CCC[S+]([O-])c1ccc2[nH]c(NC(=O)OC)nc2c1 (stereo unspecified) [Albendazole Oxide] | < 0 | < 0 | < 0 | < 0 | < 0 | < 0 | < 0 | < 0
CCOc1cc2ncc(C#N)c(Nc3ccc(OCc4ccccn4)c(Cl)c3)c2cc1NC(=O)/C=C/CN(C)C [Neratinib] | 22 | < 0 | 28.4 | 2.01 | 14.2 | 2.97 | 18.5 | 4.2
C[C@H]1O[C@@H](O[C@H]2[C@@H](O)C[C@H](O[C@H]3[C@@H](O)C[C@H](O[C@H]4CC[C@@]5(C)[C@H](CC[C@@H]6[C@@H]5C[C@@H](O)[C@]5(C)[C@@H](C7=CC(=O)OC7)CC[C@]65O)C4)O[C@@H]3C)O[C@@H]2C)C[C@H](O)[C@@H]1O [Digoxin] | 60.3 | 70.8 | 69.4 | 84.2 | 86.5 | 88.6 | 91 | 89.3
COC(=O)Nc1ccc(-c2nc(N3CCOCC3)c3cnn(C4CCN(C(=O)OC)CC4)c3n2)cc1 | < 0 | < 0 | < 0 | 0.81 | < 0 | 24.3 | < 0 | < 0
O=C1CCc2ccc(OCCCCN3CCN(c4cccc(Cl)c4Cl)CC3)cc2N1 [Aripiprazole] | < 0 | < 0 | < 0 | < 0 | < 0 | < 0 | < 0 | < 0
OC[C@H]1O[C@@H](OCCc2ccc(O)cc2)[C@H](O)[C@@H](O)[C@@H]1O [Salidroside] | < 0 | < 0 | < 0 | < 0 | < 0 | < 0 | < 0 | < 0
NS(=O)(=O)c1cc2c(cc1Cl)NCNS2(=O)=O [Hydrochlorothiazide] | < 0 | < 0 | < 0 | < 0 | < 0 | 11.8 | < 0 | < 0
Cc1cc(OCCCS(C)(=O)=O)cc(C)c1-c1cccc(COc2ccc3c(c2)OC[C@H]3CC(=O)O)c1 | < 0 | < 0 | < 0 | < 0 | < 0 | < 0 | < 0 | < 0
NS(=O)(=O)c1ccc(Nc2nc(OCC3CCCCC3)c3[nH]cnc3n2)cc1 | < 0 | < 0 | < 0 | < 0 | < 0 | < 0 | < 0 | < 0
Cc1ncc([N+](=O)[O-])n1CCO [Metronidazole] | < 0 | < 0 | < 0 | < 0 | < 0 | < 0 | < 0 | < 0
CCc1nc(N)nc(N)c1-c1ccc(Cl)cc1 [Pyrimethamine] | < 0 | < 0 | < 0 | < 0 | 3.94 | 3.29 | 5.64 | < 0
Cc1ccc(C(=O)N(CCCN)[C@@H](c2nc3cc(Cl)ccc3c(=O)n2Cc2ccccc2)C(C)C)cc1 [Ispinesib] | 5.71 | 1.27 | 58.7 | 56.1 | 30 | 33.7 | 29.2 | 76.2
C[C@H](CCC(=O)O)[C@H]1CC[C@H]2[C@@H]3[C@@H](O)C[C@@H]4C[C@H](O)CC[C@]4(C)[C@H]3CC[C@]12C [Ursodiol] | < 0 | < 0 | < 0 | < 0 | < 0 | < 0 | < 0 | < 0
CS(=O)(=O)OCCCCOS(C)(=O)=O [Busulfan] | < 0 | < 0 | < 0 | < 0 | < 0 | < 0 | < 0 | < 0

By substructure: the entries above with an aryl thioether with sulfur outside any ring (two)
SMILES | reduction in cell viability (M229P) [%] | reduction in cell viability (M229R) [%] | reduction in cell viability (M238P) [%] | reduction in cell viability (M238R) [%] | reduction in cell viability (M249P) [%] | reduction in cell viability (M249R) [%] | reduction in cell viability (UACC62P) [%] | reduction in cell viability (UACC62R) [%]
O=C(CCCCCCC(=O)Nc1ccc([C@H]2O[C@@H](CSc3nc(-c4ccccc4)c(-c4ccccc4)o3)C[C@@H](c3ccc(CO)cc3)O2)cc1)NO [Tubacin] | 3.25 | < 0 | < 0 | 12.4 | < 0 | 7.31 | < 0 | < 0
COc1nc(-c2ccc3c(c2)OCO3)n(-c2ccc(NC(=O)CSc3ccccc3)cc2)n1 [Secin H3] | < 0 | < 0 | 24.3 | < 0 | 18.8 | < 0 | < 0 | 7.78
